Counter-ions that a name gives are not always drawn. ± gives the standard deviation of the averaged measurements. The list shows a part of the results. Repeats in this data set agree poorly, so a single value says little.
Each molecule was assayed on A549 (assay: surface PD-L1 immunofluorescence intensity relative to IFN-gamma-only control (ratio); higher = more PD-L1 expression). Settings: 10 µM; exposure time 24 h; IFN-gamma 100 ng/mL.

| SMILES | surface PD-L1 immunofluorescence intensity |
| --- | --- |
| CN1C2CCCC1CC(NC(=O)c1nn(C)c3ccccc13)C2 (stereo unspecified) [Granisetron HCl] | 0.983 |
| CN1C2CCCC1CC(NC(=O)c1nn(C)c3ccccc13)C2 (stereo unspecified) [Granisetron] | 1.11 |
| CC(C)N1CCN(c2ccc(OCC3COC(Cn4cncn4)(c4ccc(Cl)cc4Cl)O3)cc2)CC1 (stereo unspecified) [Terconazole] | 1.06 |
| C=CC[C@@H]1/C=C(\C)C[C@H](C)C[C@H](OC)[C@H]2O[C@@](O)(C(=O)C(=O)N3CCCC[C@H]3C(=O)O[C@H](/C(C)=C/[C@@H]3CC[C@@H](O)[C@H](OC)C3)[C@H](C)[C@@H](O)CC1=O)[C@H](C)C[C@@H]2OC [FK-506 (Tacrolimus)] | 0.976 |
| Cc1ccc(C(=O)c2cc(O)c(O)c([N+](=O)[O-])c2)cc1 [Tolcapone] | 0.944 |
| NC[C@H]1O[C@H](O[C@H]2[C@H](O[C@@H]3O[C@H](CO)[C@@H](O)[C@H]3O)[C@@H](O)[C@H](N)C[C@@H]2N)[C@H](N)[C@@H](O)[C@@H]1O [Ribostamycin sulfate salt] | 1 |
| COc1ccc2[nH]cc(CCNC(C)=O)c2c1 [Melatonin] | 1.03 ± 0.054 |
| COc1ccc(COc2ccc(Cc3cnc(N)nc3N)cc2OC)cc1 | 1.09 |
| Cc1cc([N+](=O)[O-])ccc1NS(=O)(=O)c1cc(Cl)ccc1Cl | 0.918 |
| COc1ccc(C(=O)NCc2cccnc2)cc1C(=O)NCc1cccnc1 [Picotamide monohydrate] | 0.95 |
| Cc1c(C(=O)N(C)C2CCCCC2)sc2nc3ccc(N)cc3n12 | 1.24 |
| O=c1c(O)cccc2cc(O)c(O)c(O)c12 [Purpurogallin] | 0.98 |
| Cc1ccc(S(=O)(=O)NC(=O)NN2CC3CCCC3C2)cc1 (stereo unspecified) [Gliclazide] | 0.968 |
| CC(=O)N[C@@H](CC(=O)N[C@@H](CCC(=O)O)C(=O)O)C(=O)O [Spaglumic acid] | 1.03 ± 0.057 |
| c1ccc(C(NCCNC(c2ccccc2)c2ccccc2)c2ccccc2)cc1 [AMN 082 dihydrochloride] | 0.934 |
| O=c1c(O)c(-c2cc(O)c(O)c(O)c2)oc2cc(O)cc(O)c12 [Myricetin (Cannabiscetin)] | 1.08 |
| Cc1cc(Cn2cnc3c2CC(C(=O)O)N(C(=O)C(c2ccccc2)c2ccccc2)C3)ccc1N(C)C (stereo unspecified) | 0.938 |
| CCN(CC)CCOc1ccc(Cc2ccccc2)cc1 [DPPE fumarate] | 1.14 |
| CCn1cc(C(=O)O)c(=O)c2cnc(N3CCNCC3)nc21 [Pipemidic acid] | 1.07 |
| NCCS(=O)(=O)O [Taurine] | 1.09 |
| N#CC(C#N)=C(N)/C(C#N)=C/c1ccc(O)cc1 | 1.04 |

No new results follow: an excerpt of the list.

| SMILES | surface PD-L1 immunofluorescence intensity |
| --- | --- |
| CCN(CC)CCOc1ccc(Cc2ccccc2)cc1 [DPPE fumarate] | 1.14 |
| CCn1cc(C(=O)O)c(=O)c2cnc(N3CCNCC3)nc21 [Pipemidic acid] | 1.07 |

Source: the supplement of paper PMC8732350
